Cn1cc(O)c(=O)cc1C(F)F [Apo6719, 2-difluoromethyl-5-hydroxy-1-methyl-1H-pyridin-4-one]
stability in pH 7.4 phosphate buffer and 0.01 M sodium hydroxide: stable
